Some of these results come from one statement about several compounds together.
Target: T1, human CYP11B2 (Homo sapiens, UniProt P19099)
T1 construct: expressed in transfected cells; host or cells: V79 cells (clone V79-hCYP11B2-CLE9)
T1 sequence (P19099 25-503): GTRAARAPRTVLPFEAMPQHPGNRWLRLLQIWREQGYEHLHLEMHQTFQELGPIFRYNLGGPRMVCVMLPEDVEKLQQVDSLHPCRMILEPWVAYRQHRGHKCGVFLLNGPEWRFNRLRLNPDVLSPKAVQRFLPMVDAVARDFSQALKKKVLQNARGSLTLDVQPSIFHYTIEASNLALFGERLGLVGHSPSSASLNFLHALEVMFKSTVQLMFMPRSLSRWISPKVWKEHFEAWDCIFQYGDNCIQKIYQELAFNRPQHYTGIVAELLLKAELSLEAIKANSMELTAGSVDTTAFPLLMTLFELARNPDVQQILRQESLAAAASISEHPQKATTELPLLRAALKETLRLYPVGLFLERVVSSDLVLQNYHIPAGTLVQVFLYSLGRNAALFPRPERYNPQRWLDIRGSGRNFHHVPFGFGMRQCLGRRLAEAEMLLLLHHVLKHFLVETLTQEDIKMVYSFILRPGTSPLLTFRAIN
Experiment: V79-Human-CYP11B2 cell assay
Format: cell-based
Details: V79 cells stably expressing human CYP11B2; 125 nM 11-deoxycorticosterone substrate; aldosterone by HTRF
Experimental: Methods for V79-Human-CYP11B2 and V79-Human-CYP11B1 Assays: V79 cell lines stably expressing the either the human CYP11B2 or the human CYP11B1 enzyme were generated using a standard transfection protocol. V79 cells were transfected with plasmids pTriEx3-Hygro-hCyp11B2 or pTriEx3-Hygro-hCyp11B1 using Lipofectamine2000 reagent. […] Single cell clones were generated by […] in DMEM supplemented with 10% FBS and 400 μg/mL hygromycin until single colonies were obtained. […] The reaction was carried out for 3 hours at 37° C., 5% CO2 and was stopped by harvesting the supernatants. […] IC50s for the inhibitor were determined by plotting the amount of product formed against the concentration of inhibitor using sigmoidal dose-response curve (variable slope) fit in GraphPad.

SMILES	IC50 [µM]
CC(C)(O)c1cncc(-n2ncc3cc(C#N)ccc32)c1 [Example 63, 1-(5-(2-hydroxypropan-2-yl)pyridin-3-yl)-1H-indazole-5-carbonitrile]	< 10
Fc1cncc(-n2ncc3c(Cl)cccc32)c1 [Example 29, 4-chloro-1-(5-fluoropyridin-3-yl)-1H-indazole]	< 10
CC(C)(O)c1cncc(-n2nc(C3CC3)c3ccccc32)c1 [Example 55, 2-(5-(3-cyclopropyl-1H-indazol-1-yl)pyridin-3-yl)propan-2-ol]	< 10
CC(C)(O)c1cncc(-n2ncc3ccc(C(F)(F)F)cc32)c1 [Example 64, 2-(5-(6-(trifluoromethyl)-1H-indazol-1-yl)pyridin-3-yl)propan-2-ol]	< 10
Fc1cccc2c1cnn2-c1cncc(N2CCC2)n1 [Example 87, 1-(6-(azetidin-1-yl)pyrazin-2-yl)-4-fluoro-1H-indazole]	< 10
CC(C)(O)c1cncc(-n2ncc3c(Cl)ccc(F)c32)c1 [Example 73, 2-(5-(4-chloro-7-fluoro-1H-indazol-1-yl)pyridin-3-yl)propan-2-ol]	< 10
CC(O)(c1cncc(-n2ncc3cc(F)c(F)cc32)c1)C(F)(F)F (stereo not shown) [Example 76, 2-(5-(5,6-difluoro-1H-indazol-1-yl)pyridin-3-yl)-1,1,1-trifluoropropan-2-ol]	< 10
CC(C)(O)c1cncc(-n2ncc3cc(C(F)(F)F)ccc32)c1 [Example 67, 2-(5-(5-(trifluoromethyl)-1H-indazol-1-yl)pyridin-3-yl)propan-2-ol]	< 10
CC(C)(O)c1cncc(-n2ncc3c(C(F)(F)F)cccc32)c1 [Example 70, 2-(5-(4-(trifluoromethyl)-1H-indazol-1-yl)pyridin-3-yl)propan-2-ol]	< 10
COC(=O)c1cccc2c1cnn2-c1cncc(C(F)(F)F)c1 [Example 31, methyl 1-(5-(trifluoromethyl)pyridin-3-yl)-1H-indazole-4-carboxylate]	< 10
COC(=O)c1cccc2c1cnn2-c1cncc(C(C)(C)O)c1 [Example 71, methyl 1-(5-(2-hydroxypropan-2-yl)pyridin-3-yl)-1H-indazole-4-carboxylate]	< 10
Cc1ccc2c(cnn2-c2cccnc2)c1Cl [Example 19, 4-chloro-5-methyl-1-(pyridin-3-yl)-1H-indazole]	< 10
Fc1cccc2c1cnn2-c1cncc(Cl)c1 [Example 41, 1-(5-chloropyridin-3-yl)-4-fluoro-1H-indazole]	< 10
Fc1cc(F)c2c(cnn2-c2cccnc2)c1 [Example 14, 5,7-difluoro-1-(pyridin-3-yl)-1H-indazole]	< 10
N#Cc1cncc(-n2ncc3cc(F)ccc32)c1 [Example 7, 5-(5-fluoro-1H-indazol-1-yl)nicotinonitrile]	< 10
Cc1ccncc1-n1ncc2ccccc21 [Example 11, 1-(4-methylpyridin-3-yl)-1H-indazole]	< 10
Fc1ccc2cnn(-c3cncc4ccccc34)c2c1 [Example 49, 4-(6-fluoro-1H-indazol-1-yl)isoquinoline]	< 10
COc1cncc(-n2nc(C)c3ccccc32)c1 [Example 25, 1-(5-methoxypyridin-3-yl)-3-methyl-1H-indazole]	< 10
COc1ccc(Cl)c2cnn(-c3cccnc3)c12 [Example 18, 4-chloro-7-methoxy-1-(pyridin-3-yl)-1H-indazole]	< 10
Clc1cccc2c1cnn2-c1cccnc1 [Example 10, 4-chloro-1-(pyridin-3-yl)-1H-indazole]	< 10
CC(C)(O)c1cncc(-n2nc(C(F)(F)F)c3ccccc32)c1 [Example 60, 2-(5-(3-(trifluoromethyl)-1H-indazol-1-yl)pyridin-3-yl)propan-2-ol]	< 10
Cc1nn(-c2cncc([C@](C)(O)C(F)(F)F)c2)c2cccc(F)c12 [Example 83, (S)-1,1,1-trifluoro-2-(5-(4-fluoro-3-methyl-1H-indazol-1-yl)pyridin-3-yl)propan-2-ol]	< 10
Fc1cc2cnn(-c3cncc4ccccc34)c2cc1F [Example 46, 4-(5,6-difluoro-1H-indazol-1-yl)isoquinoline]	< 10
Fc1cncc(-n2ncc3c(F)cccc32)c1 [Example 40, 4-fluoro-1-(5-fluoropyridin-3-yl)-1H-indazole]	< 10
C[C@](O)(c1cncc(-n2ncc3c(C(F)(F)F)cccc32)c1)C(F)(F)F [Example 85, (S)-1,1,1-trifluoro-2-(5-(4-(trifluoromethyl)-1H-indazol-1-yl)pyridin-3-yl)propan-2-ol]	< 10

SMILES	IC50 [µM]
c1cncc(-n2ncc3c2CCCC3)c1 [Example 2, 1-(pyridin-3-yl)-3a,4,5,6,7,7a-hexahydro-1H-indazole]	< 10
CC(C)(O)c1cncc(-n2ncc3ccccc32)c1 [Example 56, 2-(5-(1H-indazol-1-yl)pyridin-3-yl)propan-2-ol]	< 10
Cc1ccncc1-n1ncc2c(F)cccc21 [Example 43, 4-fluoro-1-(4-methylpyridin-3-yl)-1H-indazole]	< 10
c1ccc2c(-n3ncc4c3CCCC4)cncc2c1 [Example 48, 4-(3a,4,5,6,7,7a-hexahydro-1H-indazol-1-yl)isoquinoline]	< 10
COC(=O)c1cccc2c1cnn2-c1cncc(-c2ccccc2)c1 [Example 34, methyl 1-(5-phenylpyridin-3-yl)-1H-indazole-4-carboxylate]	< 10
Fc1ccc2c(cnn2-c2cncc(-c3ccccc3)c2)c1 [Example 9, 5-fluoro-1-(5-phenylpyridin-3-yl)-1H-indazole]	< 10
CN(C)c1cncc(-n2ncc3c(Cl)cccc32)n1 [Example 88, 6-(4-chloro-1H-indazol-1-yl)-N,N-dimethylpyrazin-2-amine]	< 10
Clc1cccc2cnn(-c3cccnc3)c12 [Example 13, 7-chloro-1-(pyridin-3-yl)-1H-indazole]	< 10
Cc1nn(-c2cncc3ccccc23)c2ccccc12 [Example 51, 4-(3-methyl-1H-indazol-1-yl)isoquinoline]	< 10
COC(=O)c1cccc2c1cnn2-c1cncc(F)c1 [Example 32, methyl 1-(5-fluoropyridin-3-yl)-1H-indazole-4-carboxylate]	< 10
Cc1ccncc1-n1nc(C)c2ccccc21 [Example 27, 3-methyl-1-(4-methylpyridin-3-yl)-1H-indazole]	< 10
CCc1c(F)cncc1-n1ncc2c(F)cccc21 [Example 42, 1-(4-ethyl-5-fluoropyridin-3-yl)-4-fluoro-1H-indazole]	< 10
FC(F)(F)c1cccc2c1cnn2-c1cccnc1 [Example 17, 1-(pyridin-3-yl)-4-(trifluoromethyl)-1H-indazole]	< 10
CC(C)(O)c1cncc(-n2ncc3ccc(F)cc32)c1 [Example 57, 2-(5-(6-fluoro-1H-indazol-1-yl)pyridin-3-yl)propan-2-ol]	< 10
Cc1nn(-c2cncc(C(F)(F)F)c2)c2cccc(F)c12 [Example 36, 4-fluoro-3-methyl-1-(5-(trifluoromethyl)pyridin-3-yl)-1H-indazole]	< 10
CC(C)(O)c1cncc(-n2ncc3c(F)cccc32)c1 [Example 52, 2-[5-(4-fluoro-1H-indazol-1-yl)pyridin-3-yl]propan-2-ol]	< 10
Cc1nn(-c2cncc(C(C)(C)O)c2)c2cccc(F)c12 [Example 72, 2-(5-(4-fluoro-3-methyl-1H-indazol-1-yl)pyridin-3-yl)propan-2-ol]	< 10
COc1ccncc1-n1nc(C)c2ccccc21 [Example 26, 1-(4-methoxypyridin-3-yl)-3-methyl-1H-indazole]	< 10
Fc1ccc(Cl)c2cnn(-c3cncc(C(F)(F)F)c3)c12 [Example 37, 4-chloro-7-fluoro-1-(5-(trifluoromethyl)pyridin-3-yl)-1H-indazole]	< 10
CC(C)(O)c1cncc(-n2ncc3cccc(F)c32)c1 [Example 68, 2-(5-(7-fluoro-1H-indazol-1-yl)pyridin-3-yl)propan-2-ol]	< 10
COc1cncc(-n2ncc3c(F)cccc32)c1C [Example 44, 4-fluoro-1-(5-methoxy-4-methylpyridin-3-yl)-1H-indazole]	< 10
CC(O)(c1cncc(-n2ncc3cc(F)ccc32)c1)C(F)(F)F (stereo not shown) [Example 78, 1,1,1-trifluoro-2-(5-(5-fluoro-1H-indazol-1-yl)pyridin-3-yl)propan-2-ol]	< 10
Fc1cccc2cnn(-c3cccnc3)c12 [Example 12, 7-fluoro-1-(pyridin-3-yl)-1H-indazole]	< 10
CCN(CC)c1cncc(-n2ncc3c(F)cccc32)n1 [Example 92, N,N-diethyl-6-(4-fluoro-1H-indazol-1-yl)pyrazin-2-amine]	< 10

— US9522141B2, “Indazole compounds as aldosterone synthase inhibitors” (Merck Sharp & Dohme Corp., priority 2012, dated 2016)
